Measured values published in article doi:10.1101/2024.01.06.574455.
No constants are given. Whether binding was seen depends on the method and setting. In cells and extracts the contact can be indirect. A yes stands for co-enrichment or nearness to the bait. Other partners may have been found.

B1: putative 8-amino-7-oxononanoate synthase BioF (enzyme, UniProt P74770 1-393)
chain: MATGSTAYTWLDDALETIQRAHWHRHPQIITQGPGPEIKLEGQRLVNFASNDYLGLASHPHLKTAAIKAIAEWGTGSTGSRLLSGHRQLHQDLEQAIARWKGTEAALVFSSGYLANLGTITALVGKRDLILADEYNHSSLKRGAQLSGAKVINYDHGCPEVLTDLLMKHRDNHRRCLILSDGVFSMDGDLCPLPQLVAIAEEFQSMLLVDDAHGTGTMGKMGTGCREHFQLPVGDWIQVGTLSKALGSLGGYVAGSASLIDFLRNRAATWIYTTGLSPADTAAALAAIQLIQREPERIVQLQLNVDYLATGLESLTKLNFRRSPINSPILWVGAANPAMALEMAKHLREQGIFAPAIRPPTVPHSRIRFSVMATHSPGHIDQLLEVLDHYYPN
B2: urease subunit UreB (protein, UniProt P74386 1-105)
chain: MATMIPGEIITPEGDIELNVGRSTCTINVANTGDRPIQVGSHYHFYEVNAALQFDRDLAKGMRLDIPAGTAVRFEPGDEKNVNLVAYAGSREIYGFNGLVNGPLE
B3: putative RNA methyltransferase Sll1967 (enzyme, UniProt P73374 1-463)
chain: MTQSNNFATSPLWQQGSVVELTITGLNHQGEGIGRFNERVVFVPDTAPGDRLEVRLVKVKRNYALAQLLKILEPSVQRTRPSCIVADKCGGCQWQHLDYQFQVESKQQQIIDALERIGGFTTLPLEPLLQSPASLGYRNKATYPLSRSKTGQVQAGYYRKGSHRLVNINQCPVQDDRLNLLLTEVKKDIENRGWSIYDEEKKQGKLRHLSLRIGQRTGEMLLTLISAHKGLPDLEEQAGEWLERYPDLGGICLNIQPEPNNRIFGDETVVIAGRGICREKFADLSFSLGANTFFQVNSGAAELLLTRLQQALNLQGAELLVDAYAGVGTFTLPLARQVRQAIAIEVNQDSVHQGQRNAEINQIANVDFLAGTVETVLPTLSEIPDVLLLDPPRKGCAPEVLREIIRQRPEKIAYISCQPPTLARDLKFLCAEGFYGITWVQGCDFFPQTAHVECAVILKAVNG
B4: cyanophycin synthetase (CphA) (enzyme, UniProt P73833 1-873)
chain: MKILKTLTLRGPNYWSIRRKKLIVMRLDLEDLAERPSNSIPGFYEGLIRVLPSLVEHFCSPGHRGGFLARVREGTYMGHIVEHVALELQELVGMTAGFGRTRETSTPGIYNVVYEYVDEQAGRYAGRAAVRLCRSLVDTGDYSLTELEKDLEDLRDLGANSALGPSTETIVTEADARKIPWMLLSARAMVQLGYGVHQQRIQATLSSHSGILGVELACDKEGTKTILQDAGIPVPRGTTIQYFDDLEEAINDVGGYPVVIKPLDGNHGRGITINVRHWEEAIAAYDLAAEESKSRSIIVERYYEGSDHRVLVVNGKLVAVAERIPAHVTGDGTSTITELIDKTNQDPNRGDGHANILTKIVVNKTAIDVMERQGYNLDSVLPKDEVVYLRATANLSTGGIAIDRTDDIHPENIWLMERVAKVIGLDIAGIDVVTSDISKPLRETNGVIVEVNAAPGFRMHVAPSQGLPRNVAAPVLDMLFPSGTPSRIPILAVTGTNGKTTTTRLLAHIYRQTGKTVGYTSTDAIYINEYCVEKGDNTGPQSAAVILRDPTVEVAVLETARGGILRAGLAFDTCDVGVVLNVAADHLGLGDIDTIEQMAKVKSVIAEVVDPSGYAVLNADDPLVAAMADKVKAKVAYFSMNPDNPVIQNHIRRNGIAAVYESGYVSILEGSWTLRVEEATLIPMTMGGMAPFMIANALAACLAAFVNGLDVEVIRQGVRTFTTSAEQTPGRMNLFNLGRYHALVDYAHNPAGYRAVGDFVKNWHGQRFGVVGGPGDRRDSDLIELGQIAAQVFDRIIVKEDDDKRGRSGGETADLIVKGILQENPGAAYEVILDETVALNKALDQVEEKGLVVVFPESVSKAIELIKARKPIG
B5: tRNA (guanine-N(7)-)-methyltransferase TrmB (Sll1300) (enzyme, UniProt P73161 1-211)
chain: MARVRIRQHVNPLSEKYRQVLACPDWATVYDDVQRPLHLDIGCARGRFPLKMAQQHPDWNFLGVEIRQPLVLEANETGDRLGLKNLHYLFGNINVEPEKFFSAFPPTLQRVSIQFPDPWFKQRHNKRRVAQPELVTAIANALPPGGEVLLQSDVEPVAQDMRDRFAENDNFVFTHDTPWLAENPLGVPTEREIACFNLQRPVYRCLLQRTP
B6: enolase (enzyme, UniProt P77972 1-432)
chain: MLSKVPATIEEIAAREILDSRGRPTIEAEVRLESGAHGIAQVPSGASTGSFEAHELRDGDPKRYDGKGVEKAVRNVTEKIAPVVEGLDAFDQMAVDQAMIDRDGTDNKKELGANAILGVSLATAKAAAAELAIPLYRYLGGPLANVLPVPMMNVINGGAHADNNVDFQEFMIMPVGAETFKEALRWGAEVFAVLGKVLKERKLLSGGVGDEGGYAPNLTSNQQALDILIEAIEQAGYKPGSQIALAMDIAASEFFKNGQYEYDGGSHSPQEFIDYQAKLVSQYPIVSIEDGLHEDDWESWKGLTTSLGTKTQLVGDDLMVTNPVRLQKSIDLGVANAILIKLNQIGTLSETLETISLATRHSYRSVISHRSGETEDTTIADLAVATRVGQIKTGSLCRSERVAKYNRLLRIEDELGDRAVYAPKIGLGPKHS
B7: queuine tRNA-ribosyltransferase Slr0713 (enzyme, UniProt Q55983 1-374)
chain: MPLPSVNFTYQCQARCSHSQARAGIFQTPHGPVETPRFMPVGTLATVKGITPAQLADTQAQMVLANTYHLHLQPGEKIIAAAGGVHKFMGWSGPMLTDSGGFQVFSLSQLRTIGEQGVLFRSPRDGRLIDMTPENSIRIQNALGADVIMAFDECPPGQGDRLMVEQATARTYRWLERCIEAHQRPGDQALFGIVQGGTYLDLRSQAAEQLIALDLPGYAIGGVSVGEAPALIDKVVQHTAPLLPAHKPRYLMGVGTYREMARAIFAGIDLFDCVIPTRFGRHGTALVQGERWNLKNATFREDHRPLDETCPCYTCQTFSRAYLNHLIRSREMLGYILLSLHNITELIRFTQSIRQAILNDTFTQDFAHWLTPPE
B8: RNase E (Rne) (enzyme, UniProt P72656 1-674)
chain: MPKQIVIAEKHQVAAVFWKDQIQELVVSTGSQQVGDIYLGLVDNILPSIDAAFINIGDTEKNGFIHVSDLGPVRLRRTAGSISELLSPQQRVLVQVMKEPTGNKGPRLTGNISMPGRYMVLMPYGRGVNLSRRINREEERSRLRALAVLIKPPGMGLLVRTEAEDVPEDAIIEDLENLQKQWELVQQQAMTRSAPMLLDRDDDFIKRVLRDMYSSEVNRIVVDTPAGMKRIKQQLMNWDQGRLPEGVLIDCHRESLSILEYFRVNATIREALKPRVDLPSGGYIIIEPTEALTVIDVNSGSFTHSANSRETVLWTNYEAATEIARQLKLRNIGGVIIIDFIDMDSHKDQLQLLEHFNRCLETDKARPQIAQLTELGLVELTRKRQGQNLYELFGQPCPECGGLGHLVELPGEKGFVSLSPTAVNSSIPPRLVEKPILSPPVAKVNDLPKKEEAKISSPLDLLFHPNYQEQGDRDSNRRRRRRRGSEFSEKENIKSVGISRSKGPSPSPTKEKVTGTAPPRRERPSRRVEKTLVPVDVAMTTLEQDIYARMGISPLIKTEYADQDPRSFMVSVVTAGAALEGNTNGSGSLVNAVITTVDNGDNGDNVPSDGLTIVSEVTAPTPVIEQPREETVEPEQVVLPQLDDETPAAPVAEESAPIETKKRPGRRRRRSSAE
B9: urease subunit UreA (protein, UniProt P73796 1-100)
chain: MQLSPQEKDKLLIFTASLVAERRKARGLKLNYPEAVAYISAAILEGARDGRTVAELMNYGATLLSRDEVMEGVPEMLPEVQVEATFPDGTKLVTVHEPIR

The binders below were run against YlxR/Ssr1238-3×FLAG (Synechocystis sp. PCC 6803) (assay: affinity purification with mass spectrometry).
B1 was tested, and the binding was “binds”.
In the case of B2, the binding is reported as “binds”.
In the case of B3, the binding is reported as “binds”.
In the case of B4, the binding is reported as “binds”.
In the case of B5, the binding is reported as “binds”.
With B6 the binding was “binds”.
For B7, the binding was “binds”.
In the case of B8, the binding is reported as “binds”.
B9 was tested, and the binding was “binds”.
